Data as given in PubChem BioAssay AID1224828 (NIAID, 2016)
In all, the deposit lists about 17,000 reagents; this is a part drawn at random. Of all reagents, 762 (4.5%) were called active. 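Active calls include both raised and lowered p65 entry, mostly lowered; wells with fewer than 50 cells lack a z-score.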 The raw values are shown without normalisation. A number with no mark means an inactive call.

Assay: 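Knock-downs that increase or decrease LPS-induced p65 nuclear translocation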 (primary screen)
Cells: mouse RAW264.7 G9 macrophage reporter cells (GFP-p65, Tnf promoter-mCherry)
Reagent: siRNA pool against mouse genes, 100 nM
Time to read-out: 2 days siRNA transfection, then 40 min LPS before fixation
Challenge: LPS (Salmonella minnesota R595) at 10 ng/ml
Measured: 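Imaged p65 nuclear translocation ratio, normalised to the plate median, converted to robust z-scores and averaged across two replicates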
Scale: p65 translocation robust z-score: higher = more nuclear NF-kappaB p65 after LPS than the plate median; nuclear/cytoplasmic p65 ratio: higher = more nuclear NF-kappaB p65
Hit rule: 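Called active when z exceeds 3.3 or falls under -1.56 (median of Tlr4 controls), giving activity score of at least 50; no calls for control wells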
Calls: active = hit (p65 shift raised or lowered); inactive = no clear change

Fabp6
- p65 translocation robust z-score: 0.31
- nuclear/cytoplasmic p65 ratio, rep 1: 1.5
- nuclear/cytoplasmic p65 ratio, rep 2: 1.41
- low cell count flag: enough cells to score

Cwc25
- p65 translocation robust z-score: -1.6 (active)
- nuclear/cytoplasmic p65 ratio, rep 1: 1.3
- nuclear/cytoplasmic p65 ratio, rep 2: 1.24
- low cell count flag: enough cells to score

Sftpd
- p65 translocation robust z-score: -1.63 (active)
- nuclear/cytoplasmic p65 ratio, rep 1: 1.35
- nuclear/cytoplasmic p65 ratio, rep 2: 1.29
- low cell count flag: enough cells to score

S100a6
- p65 translocation robust z-score: -1.15
- nuclear/cytoplasmic p65 ratio, rep 1: 1.36
- nuclear/cytoplasmic p65 ratio, rep 2: 1.35
- low cell count flag: enough cells to score

Atad1
- p65 translocation robust z-score: -0.15
- nuclear/cytoplasmic p65 ratio, rep 1: 1.49
- nuclear/cytoplasmic p65 ratio, rep 2: 1.58
- low cell count flag: enough cells to score

Ulk1
- p65 translocation robust z-score: 1.23
- nuclear/cytoplasmic p65 ratio, rep 1: 1.74
- nuclear/cytoplasmic p65 ratio, rep 2: 1.54
- low cell count flag: enough cells to score

Klc3
- p65 translocation robust z-score: 0.16
- nuclear/cytoplasmic p65 ratio, rep 1: 1.46
- nuclear/cytoplasmic p65 ratio, rep 2: 1.43
- low cell count flag: enough cells to score

Naa80
- p65 translocation robust z-score: 0.2
- nuclear/cytoplasmic p65 ratio, rep 1: 1.55
- nuclear/cytoplasmic p65 ratio, rep 2: 1.29
- low cell count flag: enough cells to score

Ube2j1
- p65 translocation robust z-score: -0.89
- nuclear/cytoplasmic p65 ratio, rep 1: 1.42
- nuclear/cytoplasmic p65 ratio, rep 2: 1.35
- low cell count flag: enough cells to score

The list goes on; the last 2 above are carried over.
Naa80
- p65 translocation robust z-score: 0.2
- nuclear/cytoplasmic p65 ratio, rep 1: 1.55
- nuclear/cytoplasmic p65 ratio, rep 2: 1.29
- low cell count flag: enough cells to score

Ube2j1
- p65 translocation robust z-score: -0.89
- nuclear/cytoplasmic p65 ratio, rep 1: 1.42
- nuclear/cytoplasmic p65 ratio, rep 2: 1.35
- low cell count flag: enough cells to score

Lhx2
- p65 translocation robust z-score: -0.68
- nuclear/cytoplasmic p65 ratio, rep 1: 1.63
- nuclear/cytoplasmic p65 ratio, rep 2: 1.43
- low cell count flag: enough cells to score

Pi4k2b
- p65 translocation robust z-score: -1.64 (active)
- nuclear/cytoplasmic p65 ratio, rep 1: 1.38
- nuclear/cytoplasmic p65 ratio, rep 2: 1.17
- low cell count flag: enough cells to score

Nanp
- p65 translocation robust z-score: -0.61
- nuclear/cytoplasmic p65 ratio, rep 1: 1.47
- nuclear/cytoplasmic p65 ratio, rep 2: 1.58
- low cell count flag: enough cells to score

Aldh4a1
- nuclear/cytoplasmic p65 ratio, rep 1: 1.15
- nuclear/cytoplasmic p65 ratio, rep 2: 1.26
- low cell count flag: fewer than 50 cells per well; well left out of scoring

Crygc
- p65 translocation robust z-score: -0.38
- nuclear/cytoplasmic p65 ratio, rep 1: 1.51
- nuclear/cytoplasmic p65 ratio, rep 2: 1.25
- low cell count flag: enough cells to score
